# Experimental data published in paper PMC8881069, “Thio- and selenosemicarbazones as antiprotozoal agents against Trypanosoma cruzi and Trichomonas vaginalis” (Journal of Enzyme Inhibition and Medicinal Chemistry, 2022).
# System: Trichomonas vaginalis
# Experiment: Trichomonacidal in vitro assay (resazurin)
# Assay type: cell-based
# Conditions: SI = CC50 Vero cells/IC50 T. vaginalis
row,SMILES,SI (T. vaginalis)
1,COc1ccc(/C=N/NC(=[Se])Nc2ccc(I)cc2)cc1 [Compound 75],higher than 10
2,Oc1ccc(/C=N/NC(=[Se])Nc2ccc(Br)cc2)cc1O [Compound 74],higher than 10

# System: Trypanosoma cruzi CL-B5 amastigotes
# Experiment: CL-B5 lacZ intracellular amastigote susceptibility assay (CPRG)
# Assay type: cell-based
# Conditions: SI = CC50 L929/IC50 CL lacZ amastigotes
row,SMILES,SI CL-B5 ama
1,COc1ccc(/C=N/NC(=S)Nc2cccc([N+](=O)[O-])c2)cc1 [Compound 57],>11.49
2,"O=C(Cn1ccnc1[N+](=O)[O-])NCc1ccccc1 [Benznidazole, benznidazole, reference compound]",>544.68
3,COc1ccc(/C=N/NC(=S)Nc2ccc(OC)cc2)cc1 [Compound 43],>6.56
4,NNC(=S)Nc1cccc2ccccc12 [Compound 31],>6.45

# System: Trypanosoma cruzi CL-B5 (DTU TcVI) epimastigotes
# Experiment: CL-B5 lacZ epimastigote susceptibility assay (CPRG)
# Assay type: cell-based
# Conditions: SI = CC50 L929/IC50 CL lacZ epimastigotes
row,SMILES,SI CL-B5 epi
1,O=[N+]([O-])c1ccccc1NC(=S)N/N=C/c1ccc(O)c(O)c1 [Compound 55],0.51
2,Oc1ccc(/C=N/NC(=S)Nc2ccc(Br)cc2)cc1 [Compound 47],1.56
3,Oc1ccc(/C=N/NC(=S)Nc2cccc3ccccc23)cc1 [Compound 63],0.58
4,NNC(=S)Nc1ccc(I)cc1 [Compound 27],1.02
5,NNC(=S)Nc1ccccc1[N+](=O)[O-] [Compound 28],4.76
6,Oc1ccc(/C=N/NC(=S)Nc2ccc(Br)cc2)cc1O [Compound 49],0.16
7,Cc1ccc(NC(=S)N/N=C/c2ccc(O)cc2)cc1 [Compound 39],1.54
8,O=[N+]([O-])c1cccc(NC(=S)N/N=C/c2ccc(O)c(O)c2)c1 [Compound 58],0.35
9,O=[N+]([O-])c1cccc(NC(=S)N/N=C/c2ccc(O)cc2)c1 [Compound 56],0.78
10,COc1ccc(/C=N/NC(=S)Nc2ccc(Cl)cc2)cc1 [Compound 46],1.63
11,"O=C(Cn1ccnc1[N+](=O)[O-])NCc1ccccc1 [Benznidazole, benznidazole, reference compound]",>10.11
12,Oc1ccc(/C=N/NC(=S)Nc2ccc(I)cc2)cc1O [Compound 52],0.30
13,Oc1ccc(/C=N/NC(=S)Nc2ccccc2)cc1 [Compound 36],0.65
14,COc1ccc(NC(=S)NN)cc1 [Compound 23],>4.78
15,Oc1ccc(/C=N/NC(=S)Nc2ccc(I)cc2)cc1 [Compound 50],1.82
16,O=[N+]([O-])c1ccc(NC(=S)N/N=C/c2ccc(O)cc2)cc1 [Compound 59],0.39

row,SMILES,SI CL-B5 epi
1,NNC(=S)Nc1cccc2ccccc12 [Compound 31],> 8.91
2,O=[N+]([O-])c1ccc(/C=N/NC(=S)Nc2ccc([N+](=O)[O-])cc2)cc1 [Compound 62],<0.21
3,NNC(=S)Nc1ccc([N+](=O)[O-])cc1 [Compound 30],0.33
4,NNC(=S)Nc1cccc([N+](=O)[O-])c1 [Compound 29],2.58
5,O=[N+]([O-])c1ccccc1NC(=S)N/N=C/c1ccc(O)cc1 [Compound 53],1.60
6,NNC(=S)Nc1ccc(Cl)cc1 [Compound 25],1.53
7,Oc1ccc(/C=N/NC(=S)Nc2cccc3ccccc23)cc1O [Compound 65],0.41
8,NNC(=S)Nc1ccc(F)cc1 [Compound 24],>4.35
9,Cc1ccc(NC(=S)N/N=C/c2ccc(O)c(O)c2)cc1 [Compound 41],0.17
10,COc1ccc(/C=N/NC(=S)Nc2ccccc2)cc1 [Compound 37],>6.43
11,O=[N+]([O-])c1ccc(NC(=S)N/N=C/c2ccc(O)c(O)c2)cc1 [Compound 61],0.05
12,COc1ccc(NC(=S)N/N=C/c2ccc(O)cc2)cc1 [Compound 42],0.88
13,Oc1ccc(/C=N/NC(=S)Nc2ccc(F)cc2)cc1O [Compound 45],0.31
14,COc1ccc(/C=N/NC(=S)Nc2ccccc2[N+](=O)[O-])cc1 [Compound 54],>1.22
15,Oc1ccc(/C=N/NC(=S)Nc2ccccc2)cc1O [Compound 38],2.95
